No constants are given. Whether binding was seen depends on the method and setting. In cells and extracts the contact can be indirect. A yes stands for co-enrichment or nearness to the bait. Other partners may have been found.
Biological target: TRIM21–MYC (tripartite motif–containing 21, MYC-tagged) (UniProt P19474)
Assay: affinity purification with mass spectrometry; HONE1 cells with TRIM21 (TRIM21–MYC) ectopic expression, immunoprecipitation, MS analysis; enriched protein obtained by comparing with the IgG group

Protein sequences, listed by entry. Tags and fused reporters are not part of them.
UniProt P19474: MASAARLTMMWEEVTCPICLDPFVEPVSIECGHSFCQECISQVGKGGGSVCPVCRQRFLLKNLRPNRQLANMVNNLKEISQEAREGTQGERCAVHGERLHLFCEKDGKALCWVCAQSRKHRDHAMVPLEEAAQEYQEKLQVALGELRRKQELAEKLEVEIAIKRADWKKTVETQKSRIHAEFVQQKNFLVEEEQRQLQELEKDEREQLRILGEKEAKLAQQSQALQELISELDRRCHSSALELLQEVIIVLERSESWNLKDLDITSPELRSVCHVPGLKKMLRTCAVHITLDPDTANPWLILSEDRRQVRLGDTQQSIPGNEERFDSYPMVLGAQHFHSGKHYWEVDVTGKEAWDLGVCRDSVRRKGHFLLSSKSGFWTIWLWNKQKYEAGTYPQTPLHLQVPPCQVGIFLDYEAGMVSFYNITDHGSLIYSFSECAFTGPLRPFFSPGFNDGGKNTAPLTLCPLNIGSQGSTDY

binding: binds
B1: SERPINB5 (serpin family B member 5), endogenous (protein, UniProt P36952 1-375)
chain: MDALQLANSAFAVDLFKQLCEKEPLGNVLFSPICLSTSLSLAQVGAKGDTANEIGQVLHFENVKDVPFGFQTVTSDVNKLSSFYSLKLIKRLYVDKSLNLSTEFISSTKRPYAKELETVDFKDKLEETKGQINNSIKDLTDGHFENILADNSVNDQTKILVVNAAYFVGKWMKKFSESETKECPFRVNKTDTKPVQMMNMEATFCMGNIDSINCKIIELPFQNKHLSMFILLPKDVEDESTGLEKIEKQLNSESLSQWTNPSTMANAKVKLSIPKFKVEKMIDPKACLENLGLKHIFSEDTSDFSGMSETKGVALSNVIHKVCLEITEDGGDSIEVPGARILQHKDELNADHPFIYIIRHNKTRNIIFFGKFCSP

Source: article PMC6995195
